In the supplement of paper PMC8497498:
± gives the standard deviation of the averaged measurements. The list shows a part of the results. The data scatter; read single values as rough.

What was measured:
Settings in all cases: 10 µM
[1] = system: Plasmodium vivax liver stage (primary human hepatocyte culture); assay: hypnozoite quantity inhibition (% inhibition); higher = more active against hypnozoites
[2] = system: Plasmodium vivax liver stage (primary human hepatocyte culture); assay: schizont net growth area inhibition (% inhibition); higher = more active against liver schizonts
[3] = system: primary human hepatocytes; assay: hepatic nuclei reduction relative to DMSO (100 - % of negative control); higher = more toxic to hepatocytes
[4] = assay mode: Prophylactic (treated before or shortly after infection), fixed day 6 post-infection
[5] = assay mode: Radical Cure (treated from day 5 post-infection for 3 days), fixed day 8 post-infection

SMILES | hypnozoite quantity inhibition [1, 4] | hypnozoite quantity inhibition [1, 5] | schizont net growth area inhibition [2, 4] | schizont net growth area inhibition [2, 5] | hepatic nuclei reduction [3, 4] [%] | hepatic nuclei reduction [3, 5] [%]
Cc1ccc2nc(C)cc(Nc3cccc(C(F)(F)F)c3)c2c1 | -3.5 | 54.2 | 51.9 | 20.3 | -17 | -2
CCCCCC(=O)N1c2ccccc2N=C2CC(c3ccc(OC)c(OC)c3)CC(O)=C2C1c1ccc(C(F)(F)F)cc1 (stereo not drawn) | 27.7 | 3.8 | -47.4 | -46 | 6 | 0
Cc1ccccc1C(=O)N1N=C(Nc2ccccc2)SC1(C)C | 19 | -17 | -56.2 | 38.4 | -6 | -2
OC(Cn1nnc2ccccc21)Cn1c2ccc(Br)cc2c2cc(Br)ccc21 (stereo not drawn) | -26.6 | 35.9 | 70.1 | 5.8 | -6 | -1
COc1cc(C(=O)Nc2ccc(-c3nc4ccccc4[nH]3)cc2)cc(OC)c1OC | -16.9 | 22.1 | 71.9 | 48.3 | 4 | -18
Cc1cc(C)cc(Nc2cc(C)nc3nc(C(F)(F)F)nn23)c1 | -8.7 | 40.5 | 18.5 | 26.7 | -8 | 2
Clc1cccc(CO[C@H]2CCc3ccccc3[C@@H]2n2ccnn2)c1 | -15 | 24 | -21.1 | -14.1 | -2 | 6
Cc1cc(C)n(-c2ccc(NC(=O)C3CCN(Cc4cnc(C)s4)CC3)cc2)n1 | 13 | 11 | 29 | -14.8 | 2 | -7
CNC(=O)c1cc(S(=O)(=O)N2CCN(c3ccccn3)CC2)cs1 | -52 | -36 | 59 | -75.9 | -10 | -6
COc1ccc(CNC2CCN(c3ccc(NC(=O)c4cccc(Cl)c4)cc3)CC2)cc1OC | -40.7 | 24.4 | -51.7 | 58.8 | -2 | 9
CN(C)[C@@H]1C(O)=C(C(N)=O)C(=O)[C@@]2(O)C(O)=C3C(=O)c4c(O)cccc4[C@@](C)(O)[C@H]3C[C@@H]12 | -50 | -28 | 28.4 | 24.2 | -4 | 33
CCOc1ccc(CCNC(=O)c2cccs2)cc1OCC | -7.2 | 67.9 | 40.5 | 13.2 | -5 | 0
CCOc1cc(Cl)c(C(C)NC(=O)c2ccccc2)cc1OCC (stereo not drawn) | 12 | 34.6 | 54.4 | -70.9 | 0 | -6
CCCCc1ccc(NS(=O)(=O)c2cc3c4c(c2)CCN4C(=O)CC3)cc1 | -5 | 19.8 | -35.4 | -1.7 | -3 | -1
CCOC(=O)c1c(C)n(-c2ccccc2)c2ccc(OC(=O)c3cc(OC)c(OC)c(OC)c3)cc12 | -20.9 | -14.4 | -29.8 | -10.2 | -4 | -13
O=C(NCCN1CCCC1)c1cc(NCCN2CCOCC2)nc2ccc(Cl)cc12 | 82 | 19 | 109 | 71.8 | -6 | -5
Cc1ccc2oc(-c3cc(NC(=O)Cc4ccccc4)ccc3Cl)nc2c1 | 13 | -7 | -16.3 | -10.3 | -2 | -2
c1cc(C2=NCCN2)cc(-c2cc(-c3ccc(C4=NCCN4)cc3)no2)c1 | -10 | -15 | -43.9 | -114 | 1 | -1
CC(C)N=c1cc2n(-c3ccc(Cl)cc3)c3ccccc3nc-2cc1Nc1ccc(Cl)cc1 | -11 | -23 | -9.1 | -102 | 14 | 9
FC(F)(F)c1cc(C(F)(F)F)c2ccc3nc(-c4nnco4)cn3c2n1 | -13 | -10 | 49.1 | -23.8 | -6 | -12

SMILES | hypnozoite quantity inhibition [1, 4] | hypnozoite quantity inhibition [1, 5] | schizont net growth area inhibition [2, 4] | schizont net growth area inhibition [2, 5] | hepatic nuclei reduction [3, 4] [%] | hepatic nuclei reduction [3, 5] [%]
Cc1ccc(Nc2nc(N)c3ccccc3n2)cc1Cl | 21 | 38.2 | -160 | -4.7 | 0 | -7
Cn1ccnc1CNCCS(=O)(=O)c1cccc(Nc2ccc(-c3cccc(F)c3)cn2)c1 | 45 | 16 | 26.7 | -182 | 1 | -11
CCOc1ccc2nc(C)cc(Nc3ccc(N(C)C)cc3)c2c1 | 6.3 | 21 | -4.5 | 72.3 | 14 | -1
CC(C)=CCN1CCC(C(=O)Nc2ccc(-c3nc4ccccc4[nH]3)cc2)CC1 | 0.6 | 31.9 | -24 | 15.5 | 0 | -6
Brc1ccc(Nc2nc3ccccc3nc2Nc2ccc(Br)cc2)cc1 | 70.8 | 47.3 | 97.2 | 51.4 | -4 | -2
CCC1OC(=O)C(C)C(OC2CC(C)(OC)C(O)C(C)O2)C(C)C(OC2OC(C)CC(N(C)C)C2O)C(C)(O)CC(C)CN(C)C(C)C(O)C1(C)O (stereo not drawn) | -59 | 4 | 39.5 | 34.1 | 0 | 0
COc1ccc(N2CCN(C(CNC(=O)C3CCCCC3)c3ccc4c(c3)OCO4)CC2)cc1 (stereo not drawn) | -13.9 | -19.8 | 79.2 | -134 | -1 | -6
Cc1cc(C)nc(-n2nc(C)cc2Nc2ccccc2)n1 | 15 | -20 | 25.7 | -41.2 | 4 | 7
CCCCCCn1c(=N)n(CC(O)COc2cccc(C)c2)c2ccccc21 (stereo not drawn) | 29.1 | 23.7 | 36.5 | 20 | 4 | -4
CC(Oc1ccc(NC(=O)c2cccs2)cc1)C(=O)c1ccc(Cl)cc1 (stereo not drawn) | -15.4 | 35.9 | 13.1 | 30.3 | -3 | -4
CN1CCN(c2ccc(Nc3c4ccccc4nc4ccccc34)cc2)CC1 | 74.5 | 31.3 | 103 | 64.4 | 4 | 13
N=C(N)c1ccc(OCCCCCOc2ccc(C(=N)N)cc2)cc1 | 8.5 ± 22 | 9.5 ± 64 | 59.9 ± 13 | 72.5 ± 32 | -4 | -9 ± 1.4
Cc1cc(Nc2ccc3ccccc3c2)n2ncnc2n1 | -2 | 29 | 62.5 | 11.9 | -12 | -2
Cc1ccc(C)c(Cn2c(N3CCC(C(=O)NCc4cccs4)CC3)nc3ccccc32)c1 | -10.7 | -41.6 | 72.4 | -96.1 | 5 | -10
CC(C)(C)c1ccc2c(c1)CN(Cc1ccc(Cl)cc1)CO2 | 25.3 | -6.2 | 13.7 | -87.6 | 0 | -9
CCNC(=O)C(C)Nc1nc(-c2cccnc2)nc2sc(C)c(C)c12 (stereo not drawn) | 21 | 3 | 13 | -64.6 | -5 | -7
CCN1CCN(Cc2ccc(NC(=O)c3cc4ccc5cccnc5c4[nH]3)cc2)CC1 | 93.5 | -55.3 | 96.1 | 1 | 0 | -8
CCCc1c(C)nc2ccccc2c1O | -26.6 | 58.8 | 63.7 | -33.6 | -8 | -4
COc1ccc(C(C)=O)cc1N1C(=O)C2C(C1=O)C1(c3ccccc3)C(=O)C2(c2ccccc2)C(c2ccc(C)cc2)=C1c1ccc(C)cc1 (stereo not drawn) | 9.1 | 42.7 | 12.4 | -6.7 | 0 | 0
Oc1ccc(-c2nc(-c3ccc4oc5ccc(-c6[nH]c(-c7ccc(O)cc7)nc6-c6ccccc6)cc5c4c3)c(-c3ccccc3)[nH]2)cc1 | -23.6 | 35.9 | -38.1 | 88.8 | -4 | -1

Exported in markdown: entries from further up.

| SMILES | hypnozoite quantity inhibition [1, 4] | hypnozoite quantity inhibition [1, 5] | schizont net growth area inhibition [2, 4] | schizont net growth area inhibition [2, 5] | hepatic nuclei reduction [3, 4] [%] | hepatic nuclei reduction [3, 5] [%] |
| --- | --- | --- | --- | --- | --- | --- |
| CCC1OC(=O)C(C)C(OC2CC(C)(OC)C(O)C(C)O2)C(C)C(OC2OC(C)CC(N(C)C)C2O)C(C)(O)CC(C)CN(C)C(C)C(O)C1(C)O (stereo not drawn) | -59 | 4 | 39.5 | 34.1 | 0 | 0 |
| CC(Oc1ccc(NC(=O)c2cccs2)cc1)C(=O)c1ccc(Cl)cc1 (stereo not drawn) | -15.4 | 35.9 | 13.1 | 30.3 | -3 | -4 |

Later entries:

SMILES | hypnozoite quantity inhibition [1, 4] | hypnozoite quantity inhibition [1, 5] | schizont net growth area inhibition [2, 4] | schizont net growth area inhibition [2, 5] | hepatic nuclei reduction [3, 4] [%] | hepatic nuclei reduction [3, 5] [%]
CC(C)c1ccc(CNCC(O)c2ccccc2)cc1 (stereo not drawn) | 10.6 | 19.8 | 2.5 | -14.6 | -2 | 0
COc1ccc(CCn2c(=N)c(C(=O)NCc3cccnc3)cc3c(=O)n4cccc(C)c4nc32)cc1 | -1.3 | 26.7 | -13.2 | -34.9 | -8 | 8
COc1ccccc1C(=O)ON=C(N)Cc1cccc2ccccc12 | 11.4 | 7.4 | 35.6 | 19.3 | -1 | -3
Cc1cc(C(=O)Nc2ccc(-c3ccccc3)cc2)no1 | -11 | -7 | -55.6 | -75.9 | -11 | -5
CCOc1ccc(N2C(N)=NC(N)=NC2(C)C)cc1 | 14.5 | -0.8 | 41 | 41.9 | 2 | -14
Cc1cc2ccccc2n1CC(=O)N1CC(C(=O)N2CCCCC2)Oc2ccccc21 (stereo not drawn) | 31 | -25 | 51.8 | -89.5 | 3 | -5
COCCNC(=O)c1ccc(OC2CCN(Cc3ccc(F)c(F)c3)CC2)c(Cl)c1 | -13.2 | 38.2 | 45.2 | 37.8 | -16 | 0
Cc1nc2ccccc2c(O)c1CC=C(Cl)Cl | -8.7 | 22.1 | -10.3 | -28.2 | -7 | 7
COc1ccc(C(=N)N)cc1-c1cn(-c2ccc(C(=N)N)cc2)nn1 | 29 | -4 | 46.3 | -8.4 | 15 | 4
O=C(Nc1ccc(N2CCCCC2)c(Cl)c1)c1ccc(Br)o1 | 31.6 | 23.7 | -11.6 | -37.2 | -9 | -10
Cc1nnc(NCc2cccc(Cl)c2)c2ccccc12 | -2 | -12 | 15.6 | -159 | -8 | -6
COc1ccc2c(c1OC)C(=O)N1c3ccccc3N=C(c3ccc(C)cc3)CC21 (stereo not drawn) | 0 | -19.8 | 55.7 | 19.8 | -4 | -4
COc1cc(NC(C)CCCN)c2nccc(C)c2c1Oc1ccc(Cl)c(Cl)c1 (stereo not drawn) | -26 | 18 | 71.1 | 28.6 | 4 | -6
CC(C)(C)NCc1cc(Nc2ccnc3cc(Cl)ccc23)ccc1F | -52 | 15 | 39.5 | 35 | -5 | -8
CC(C)n1nc(-c2cc3c(Cl)cccc3[nH]2)c2c(N)ncnc21 | -13 | -51 | 58.1 | 41 | 6 | 3
CNC(=O)C1Cc2ccccc2N1C(=O)Cc1ccc(F)cc1 (stereo not drawn) | 14 | -23 | 32.7 | -33.7 | 0 | -5
CCOC(=O)c1cnc2ccc(OC)cc2c1Nc1ccc(N2CCN(C)CC2)cc1 | 11.4 | 18.3 | -5 | 21.8 | 6 | -5
O=C(CCl)NCCOc1ccc(Cl)cc1Cl | -25.8 | 56.5 | 27.2 | -37.8 | -13 | 1
